The values that follow come from article PMC2666795, “Bacterial Genome Partitioning: N-Terminal Domain of IncC Protein Encoded by Broad-Host-Range Plasmid RK2 Modulates Oligomerisation and DNA Binding” (Journal of Molecular Biology, 2009).

These are yes or no findings as the source states them, for the method shown. Some results given as binding are weak or reduced against the parent protein; the word gives no strength.

For assay [1], the target named is T1, IncC2 (259 aa), short ParA protein made from the second translational start of incC of plasmid RK2 (plasmid RK2 (IncP-1)) (UniProt P07673).
T1 sequence: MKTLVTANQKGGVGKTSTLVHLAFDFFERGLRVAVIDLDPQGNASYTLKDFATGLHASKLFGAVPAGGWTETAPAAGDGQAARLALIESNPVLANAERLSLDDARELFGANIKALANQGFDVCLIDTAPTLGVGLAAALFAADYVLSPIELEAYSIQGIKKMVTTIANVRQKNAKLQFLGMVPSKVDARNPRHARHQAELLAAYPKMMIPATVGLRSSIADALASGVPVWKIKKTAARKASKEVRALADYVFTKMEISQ
Description: cross-linking; glutaraldehyde 0-0.1%, no nucleotide; 5 μg of each protein in 50 μl, 10 mM MgCl2, 25 mM phosphate buffer pH 7.5; 30 min 37 °C, then 30 min 30 °C with glutaraldehyde; SDS-PAGE, Western blot with anti-IncC; both purified. (A western blot detects proteins with antibodies after separation by electrophoresis.)

Assay [2] has as its target T1, IncC2 (259 aa), short ParA protein made from the second translational start of incC of plasmid RK2 (plasmid RK2 (IncP-1)). Description: cross-linking; glutaraldehyde cross-linking of mixed IncC1 and IncC2 with ADP, Western blot, data not shown; both purified.
For assay [3] the target is unchanged. Description: cross-linking; glutaraldehyde 0-0.1%, with 2 mM ATP; 5 μg of each protein in 50 μl, 10 mM MgCl2, 25 mM phosphate buffer pH 7.5; 30 min 37 °C, then 30 min 30 °C with glutaraldehyde; SDS-PAGE, Western blot with anti-IncC; both purified.
Assay [4] addresses IncC1 (364 aa), long ParA protein encoded by incC of broad-host-range plasmid RK2 (plasmid RK2 (IncP-1)) (UniProt P07673). Description: AUC; velocity sedimentation, 30 μM IncC1 without ATP; precipitated protein cleared beforehand; 50 mM sodium phosphate pH 8.0, 100 mM NaCl, 40,000 rpm, 4 °C; both purified.
In assay [5] the target is IncC1-NΔ23 (23 aa removed from the N-terminus of IncC1) (plasmid RK2 (IncP-1)) (UniProt P07673). Description: AUC; velocity sedimentation of IncC1 lacking 23 N-terminal amino acids, data not shown; both purified.

B1: N-terminal domain of IncC1 (amino acids 1-105) (domain or fragment, plasmid RK2 (IncP-1), UniProt P07673 1-105, looked up)
chain: MGVIHEETAYRKPVPGGDPGAGSGAADHRDSAGRLSRWEATGDVRNVAGTDQGRSVASGASRVGRVRGQELARGVRAGNGGSAGTSGVHRPEVGSGRQEKTGNQT
notes: N-terminal domain of IncC1 of plasmid RK2, amino acids 1-105, 11 kDa; also called NTD; IncC1 NTD; source: E. coli, expressed from pSMB315 (pGBT340 with incC1-NTD), purified
For B1, the binding result in assay [1] is recorded as “no binding (condition: in the absence of nucleotides)”.

B2: IncC1 (364 aa), long ParA protein encoded by incC of broad-host-range plasmid RK2 (natural protein, plasmid RK2 (IncP-1), UniProt P07673 1-364, looked up)
chain: MGVIHEETAYRKPVPGGDPGAGSGAADHRDSAGRLSRWEATGDVRNVAGTDQGRSVASGASRVGRVRGQELARGVRAGNGGSAGTSGVHRPEVGSGRQEKTGNQTMKTLVTANQKGGVGKTSTLVHLAFDFFERGLRVAVIDLDPQGNASYTLKDFATGLHASKLFGAVPAGGWTETAPAAGDGQAARLALIESNPVLANAERLSLDDARELFGANIKALANQGFDVCLIDTAPTLGVGLAAALFAADYVLSPIELEAYSIQGIKKMVTTIANVRQKNAKLQFLGMVPSKVDARNPRHARHQAELLAAYPKMMIPATVGLRSSIADALASGVPVWKIKKTAARKASKEVRALADYVFTKMEISQ
notes: IncC1, the product of the first translational start of incC (parA) of IncP-1 plasmid RK2, 364 aa; also called His6-IncC1; His-IncC1; source: E. coli BL21 (printed: C600 BL21), modified pET28a vector, purified (nickel-agarose)
As for B2, the values for the binding entry in assay [2], in assay [3] and in assay [4] were “binds”, “binds” and “no binding (condition: in the absence of ATP; 30 μM IncC1)”, respectively.

B3: IncC1-NΔ23 (23 aa removed from the N-terminus of IncC1) (domain or fragment, UniProt P07673 24-364)
chain: GAADHRDSAGRLSRWEATGDVRNVAGTDQGRSVASGASRVGRVRGQELARGVRAGNGGSAGTSGVHRPEVGSGRQEKTGNQTMKTLVTANQKGGVGKTSTLVHLAFDFFERGLRVAVIDLDPQGNASYTLKDFATGLHASKLFGAVPAGGWTETAPAAGDGQAARLALIESNPVLANAERLSLDDARELFGANIKALANQGFDVCLIDTAPTLGVGLAAALFAADYVLSPIELEAYSIQGIKKMVTTIANVRQKNAKLQFLGMVPSKVDARNPRHARHQAELLAAYPKMMIPATVGLRSSIADALASGVPVWKIKKTAARKASKEVRALADYVFTKMEISQ
On to B3, for which, in assay [5], the binding result was “binds”.
